Reference: paper PMC7759028
Results are given in words; binding and its absence hold for the method and conditions named. Some results given as binding are weak or reduced against the parent protein; the word gives no strength. Sequences can lack the tags named with a protein.

T1: prolactin receptor on CHO-PRLR cells (human) (UniProt P16471)
T1 sequence: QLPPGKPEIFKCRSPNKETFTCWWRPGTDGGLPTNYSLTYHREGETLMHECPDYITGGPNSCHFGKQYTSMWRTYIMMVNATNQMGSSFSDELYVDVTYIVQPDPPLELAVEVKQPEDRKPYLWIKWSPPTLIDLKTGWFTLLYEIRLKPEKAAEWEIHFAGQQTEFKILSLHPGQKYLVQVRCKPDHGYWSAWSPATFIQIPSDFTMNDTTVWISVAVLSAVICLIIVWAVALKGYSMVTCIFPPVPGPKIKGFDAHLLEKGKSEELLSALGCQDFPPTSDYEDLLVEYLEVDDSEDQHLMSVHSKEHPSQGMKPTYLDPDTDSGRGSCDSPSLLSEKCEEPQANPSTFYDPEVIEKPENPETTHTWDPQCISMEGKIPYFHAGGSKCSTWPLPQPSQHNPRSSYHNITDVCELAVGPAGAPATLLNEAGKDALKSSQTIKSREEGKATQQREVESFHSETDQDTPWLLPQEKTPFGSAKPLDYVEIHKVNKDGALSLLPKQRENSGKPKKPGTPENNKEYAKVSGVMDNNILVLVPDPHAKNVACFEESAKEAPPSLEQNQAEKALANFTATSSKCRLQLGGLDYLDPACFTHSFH


Molecular target: T1, prolactin receptor on CHO-PRLR cells (human)
Experiment: flow cytometry on cells; competitive receptor binding: CHO-PRLR or CHO-GHR cells serum starved 8 h; fluorescent labelled PRL/GH with various concentrations of unlabelled PRL/GH, Ab2β or isotype control, 4°C, 1 h; FACS Calibur; only the binder purified

| binding | Binder |
| --- | --- |
| binds | Alexa-flour-PRL (ligand, UniProt P01236 29-227, Alexa-flour label (fluorescent labelled; site not stated)) LPICPGGAARCQVTLRDLFDRAVVLSHYIHNLSSEMFSEFDKRYTHGRGFITKAINSCHTSSLATPEDKEQAQQMNQKDFLSLIVSILRSWNEPLYHLVTEVRGMQEAPEAILSKAVEIEEQTKRLLEGMELIVSQVHPETKENEIYPVWSGLPSLQMADEESRLSAYYNLLHCLRRDSHKIDNYLKLLKCRIIHNNNC |
| binds | prolactin (ligand, UniProt P01236 29-227) LPICPGGAARCQVTLRDLFDRAVVLSHYIHNLSSEMFSEFDKRYTHGRGFITKAINSCHTSSLATPEDKEQAQQMNQKDFLSLIVSILRSWNEPLYHLVTEVRGMQEAPEAILSKAVEIEEQTKRLLEGMELIVSQVHPETKENEIYPVWSGLPSLQMADEESRLSAYYNLLHCLRRDSHKIDNYLKLLKCRIIHNNNC |
| binds | Prolactin antagonist (des one to nine, G129R) (ligand, UniProt P01236 38-227) RCQVTLRDLFDRAVVLSHYIHNLSSEMFSEFDKRYTHGRGFITKAINSCHTSSLATPEDKEQAQQMNQKDFLSLIVSILRSWNEPLYHLVTEVRGMQEAPEAILSKAVEIEEQTKRLLERMELIVSQVHPETKENEIYPVWSGLPSLQMADEESRLSAYYNLLHCLRRDSHKIDNYLKLLKCRIIHNNNC |
